Among the data in publication PMC2770170 are binding values, retold here.

Protein sequences, listed by entry. Tags and fused reporters are not part of them. Lines headed by an entry give the natural chain unless they say otherwise; changes in a name come on top.
UniProt Q22145: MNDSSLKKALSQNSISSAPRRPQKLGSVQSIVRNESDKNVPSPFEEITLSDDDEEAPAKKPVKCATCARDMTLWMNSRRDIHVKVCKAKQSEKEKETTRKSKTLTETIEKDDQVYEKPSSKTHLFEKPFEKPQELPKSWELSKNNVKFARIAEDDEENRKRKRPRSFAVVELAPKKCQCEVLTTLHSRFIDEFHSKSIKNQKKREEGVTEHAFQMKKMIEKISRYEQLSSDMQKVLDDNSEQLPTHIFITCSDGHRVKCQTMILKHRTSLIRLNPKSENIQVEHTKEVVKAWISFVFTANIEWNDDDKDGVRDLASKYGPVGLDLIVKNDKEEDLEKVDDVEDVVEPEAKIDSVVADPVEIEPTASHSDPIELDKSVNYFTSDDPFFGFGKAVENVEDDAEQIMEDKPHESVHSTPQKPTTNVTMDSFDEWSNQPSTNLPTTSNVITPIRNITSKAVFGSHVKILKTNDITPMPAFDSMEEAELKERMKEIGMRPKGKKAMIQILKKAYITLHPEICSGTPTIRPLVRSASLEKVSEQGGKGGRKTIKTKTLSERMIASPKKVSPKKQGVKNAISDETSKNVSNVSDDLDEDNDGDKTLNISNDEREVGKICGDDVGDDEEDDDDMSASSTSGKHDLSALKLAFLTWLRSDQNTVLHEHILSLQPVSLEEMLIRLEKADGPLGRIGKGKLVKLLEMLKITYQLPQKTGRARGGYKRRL

Test [1] concerns the target XPF-1 full length (C. elegans) (UniProt G5EBZ1). Nature of the test: two-hybrid; other combinations of yeast strains and plasmids (Figure S12): pVV213/pVV212 in AH109/Y187 and Mav203/Mav103 diploids, pDEST22/pDEST32 in Y8800/Y8930 diploids; 30°C.
Test [2] has the same target. The test is described as follows: two-hybrid; Gal4 AD (pVV213) and Gal4 DB (pVV212) fusions in Y8800/Y8930 diploid yeast; scored by growth on SC-Leu-Trp-His, SC-Leu-Trp-His+1 mM 3-AT and SC-Leu-Trp-Ade plates; 30°C.
The target of test [3] is HIM-18 full length (C. elegans) (UniProt Q22145). Nature of the test: two-hybrid; other combinations of yeast strains and plasmids (Figure S12): pVV213/pVV212 in AH109/Y187 and Mav203/Mav103 diploids, pDEST22/pDEST32 in Y8800/Y8930 diploids; 30°C.
Test [4] has the same target. Nature of the test: two-hybrid; Gal4 AD (pVV213) and Gal4 DB (pVV212) fusions in Y8800/Y8930 diploid yeast; scored by growth on SC-Leu-Trp-His, SC-Leu-Trp-His+1 mM 3-AT and SC-Leu-Trp-Ade plates; 30°C.

These are yes or no findings as the source states them, for the method shown. Binding calls can cover weak binding; strength is not graded here.

In the case of “ERCC-1 full length (from UniProt Q93456)”, the binding entry in test [1] and in test [2] was “binds” each time.

Regarding XPF-1 full length (from UniProt G5EBZ1), the binding result in test [3] and in test [4] was “binds” in each case.

Turning to “HIM-18 full length (from UniProt Q22145)”, the binding entry in test [1] and in test [2] was “binds” in each case.
